According to the supplement of paper PMC12067093, “Discovery and optimisation of a covalent ligand for TRIM25 and its application to targeted protein ubiquitination” (Chemical Science, 2025):
The list shows a part of the results.

Sequences of proteins named here, by UniProt entry; tags and fusion partners are left off. A change or cut given only in a name is not applied to a line headed by its entry.
UniProt P48444: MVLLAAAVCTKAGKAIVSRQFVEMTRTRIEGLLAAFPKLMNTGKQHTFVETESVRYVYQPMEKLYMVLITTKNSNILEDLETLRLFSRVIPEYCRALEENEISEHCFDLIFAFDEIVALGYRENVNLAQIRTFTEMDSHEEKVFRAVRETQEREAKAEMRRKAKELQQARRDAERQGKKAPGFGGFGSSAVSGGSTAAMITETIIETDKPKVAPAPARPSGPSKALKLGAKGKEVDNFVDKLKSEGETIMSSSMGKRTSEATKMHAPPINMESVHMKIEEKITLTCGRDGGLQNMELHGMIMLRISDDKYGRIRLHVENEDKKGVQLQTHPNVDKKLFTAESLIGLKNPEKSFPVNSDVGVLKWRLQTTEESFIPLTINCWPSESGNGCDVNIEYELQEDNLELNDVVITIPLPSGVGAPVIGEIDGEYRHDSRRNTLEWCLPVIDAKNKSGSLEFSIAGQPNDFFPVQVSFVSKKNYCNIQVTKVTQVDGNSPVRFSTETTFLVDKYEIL
UniProt O95376: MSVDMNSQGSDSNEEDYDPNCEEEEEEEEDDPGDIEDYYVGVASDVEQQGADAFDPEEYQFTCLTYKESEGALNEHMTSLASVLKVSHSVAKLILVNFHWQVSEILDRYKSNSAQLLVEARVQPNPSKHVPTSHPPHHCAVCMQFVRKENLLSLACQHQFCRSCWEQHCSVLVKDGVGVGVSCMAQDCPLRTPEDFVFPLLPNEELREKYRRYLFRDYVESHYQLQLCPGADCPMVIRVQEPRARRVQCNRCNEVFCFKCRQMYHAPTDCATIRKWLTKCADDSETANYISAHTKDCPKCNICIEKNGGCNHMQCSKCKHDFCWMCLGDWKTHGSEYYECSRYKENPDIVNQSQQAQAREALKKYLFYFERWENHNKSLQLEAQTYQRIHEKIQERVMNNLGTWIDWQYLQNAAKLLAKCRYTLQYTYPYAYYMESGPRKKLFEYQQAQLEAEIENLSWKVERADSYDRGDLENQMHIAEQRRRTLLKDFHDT
UniProt Q15041, whole entry: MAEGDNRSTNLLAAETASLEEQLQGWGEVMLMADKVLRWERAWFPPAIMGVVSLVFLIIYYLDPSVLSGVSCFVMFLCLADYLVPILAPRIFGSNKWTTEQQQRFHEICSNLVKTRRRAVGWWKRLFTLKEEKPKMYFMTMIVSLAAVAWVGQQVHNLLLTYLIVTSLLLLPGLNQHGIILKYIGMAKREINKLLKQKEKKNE
UniProt Q17R89: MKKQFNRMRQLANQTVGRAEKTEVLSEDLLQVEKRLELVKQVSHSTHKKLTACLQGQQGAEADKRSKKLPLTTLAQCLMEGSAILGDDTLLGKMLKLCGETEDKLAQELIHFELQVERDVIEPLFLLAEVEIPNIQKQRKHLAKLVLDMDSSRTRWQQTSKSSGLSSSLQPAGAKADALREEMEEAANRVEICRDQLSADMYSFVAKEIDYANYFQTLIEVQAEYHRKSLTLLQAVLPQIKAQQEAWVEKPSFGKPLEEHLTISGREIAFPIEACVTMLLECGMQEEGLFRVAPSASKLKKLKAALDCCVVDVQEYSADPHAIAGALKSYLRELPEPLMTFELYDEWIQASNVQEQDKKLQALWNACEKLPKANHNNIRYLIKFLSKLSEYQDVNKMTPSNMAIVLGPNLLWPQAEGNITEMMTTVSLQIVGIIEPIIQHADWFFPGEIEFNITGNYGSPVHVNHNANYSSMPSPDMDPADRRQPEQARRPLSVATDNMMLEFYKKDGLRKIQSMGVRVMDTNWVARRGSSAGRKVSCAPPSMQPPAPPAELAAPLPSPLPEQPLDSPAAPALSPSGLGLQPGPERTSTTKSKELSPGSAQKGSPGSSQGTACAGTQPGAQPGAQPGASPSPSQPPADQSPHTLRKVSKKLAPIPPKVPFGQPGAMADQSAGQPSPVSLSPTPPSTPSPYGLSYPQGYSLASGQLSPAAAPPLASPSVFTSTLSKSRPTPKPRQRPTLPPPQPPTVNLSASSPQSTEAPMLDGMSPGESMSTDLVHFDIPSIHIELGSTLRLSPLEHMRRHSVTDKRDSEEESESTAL
UniProt Q92888: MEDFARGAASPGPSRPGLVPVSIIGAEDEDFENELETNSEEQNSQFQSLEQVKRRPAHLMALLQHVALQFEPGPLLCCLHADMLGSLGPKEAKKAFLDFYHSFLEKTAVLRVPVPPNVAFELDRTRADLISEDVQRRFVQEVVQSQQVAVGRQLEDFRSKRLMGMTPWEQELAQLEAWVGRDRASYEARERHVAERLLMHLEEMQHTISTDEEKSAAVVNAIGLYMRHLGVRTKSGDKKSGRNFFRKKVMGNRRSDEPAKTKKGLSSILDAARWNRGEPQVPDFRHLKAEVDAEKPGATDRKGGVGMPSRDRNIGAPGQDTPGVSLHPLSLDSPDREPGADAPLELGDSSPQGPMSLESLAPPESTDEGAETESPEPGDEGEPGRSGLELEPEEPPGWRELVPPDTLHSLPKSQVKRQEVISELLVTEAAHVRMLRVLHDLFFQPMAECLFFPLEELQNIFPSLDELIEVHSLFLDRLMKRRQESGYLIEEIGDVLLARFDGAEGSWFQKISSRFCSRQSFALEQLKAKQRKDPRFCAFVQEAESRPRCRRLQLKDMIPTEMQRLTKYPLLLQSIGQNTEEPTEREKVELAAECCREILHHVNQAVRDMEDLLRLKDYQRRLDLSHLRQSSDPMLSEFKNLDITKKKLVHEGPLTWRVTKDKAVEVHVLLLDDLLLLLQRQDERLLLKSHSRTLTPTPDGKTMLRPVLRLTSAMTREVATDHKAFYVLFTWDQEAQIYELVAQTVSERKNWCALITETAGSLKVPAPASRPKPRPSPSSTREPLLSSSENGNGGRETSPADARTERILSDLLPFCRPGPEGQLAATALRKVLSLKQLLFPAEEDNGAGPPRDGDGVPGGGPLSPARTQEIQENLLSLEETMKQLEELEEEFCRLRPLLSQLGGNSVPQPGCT
UniProt P40616: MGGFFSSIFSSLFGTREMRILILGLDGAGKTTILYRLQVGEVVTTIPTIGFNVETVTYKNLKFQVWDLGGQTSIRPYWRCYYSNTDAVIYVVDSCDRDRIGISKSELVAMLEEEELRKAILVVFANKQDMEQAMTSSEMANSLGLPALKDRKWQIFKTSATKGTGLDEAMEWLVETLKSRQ
UniProt P42331: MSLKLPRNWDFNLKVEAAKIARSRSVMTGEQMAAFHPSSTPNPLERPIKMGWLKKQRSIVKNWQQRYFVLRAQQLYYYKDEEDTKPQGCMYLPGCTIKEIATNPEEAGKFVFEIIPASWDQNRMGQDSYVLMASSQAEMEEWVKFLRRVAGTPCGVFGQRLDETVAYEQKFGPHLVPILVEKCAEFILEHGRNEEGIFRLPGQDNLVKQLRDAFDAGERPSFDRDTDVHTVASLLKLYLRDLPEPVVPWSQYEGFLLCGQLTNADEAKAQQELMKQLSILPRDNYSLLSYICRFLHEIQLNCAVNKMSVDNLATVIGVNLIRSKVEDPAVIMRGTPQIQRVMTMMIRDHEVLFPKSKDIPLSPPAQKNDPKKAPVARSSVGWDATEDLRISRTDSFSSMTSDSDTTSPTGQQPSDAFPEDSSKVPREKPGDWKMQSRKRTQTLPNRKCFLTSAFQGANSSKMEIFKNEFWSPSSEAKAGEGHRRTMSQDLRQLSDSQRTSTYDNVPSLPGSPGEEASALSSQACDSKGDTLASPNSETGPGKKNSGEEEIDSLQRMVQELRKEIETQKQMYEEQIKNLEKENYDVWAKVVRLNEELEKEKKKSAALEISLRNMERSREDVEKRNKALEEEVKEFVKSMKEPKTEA
UniProt Q8TER5, whole entry, looked up: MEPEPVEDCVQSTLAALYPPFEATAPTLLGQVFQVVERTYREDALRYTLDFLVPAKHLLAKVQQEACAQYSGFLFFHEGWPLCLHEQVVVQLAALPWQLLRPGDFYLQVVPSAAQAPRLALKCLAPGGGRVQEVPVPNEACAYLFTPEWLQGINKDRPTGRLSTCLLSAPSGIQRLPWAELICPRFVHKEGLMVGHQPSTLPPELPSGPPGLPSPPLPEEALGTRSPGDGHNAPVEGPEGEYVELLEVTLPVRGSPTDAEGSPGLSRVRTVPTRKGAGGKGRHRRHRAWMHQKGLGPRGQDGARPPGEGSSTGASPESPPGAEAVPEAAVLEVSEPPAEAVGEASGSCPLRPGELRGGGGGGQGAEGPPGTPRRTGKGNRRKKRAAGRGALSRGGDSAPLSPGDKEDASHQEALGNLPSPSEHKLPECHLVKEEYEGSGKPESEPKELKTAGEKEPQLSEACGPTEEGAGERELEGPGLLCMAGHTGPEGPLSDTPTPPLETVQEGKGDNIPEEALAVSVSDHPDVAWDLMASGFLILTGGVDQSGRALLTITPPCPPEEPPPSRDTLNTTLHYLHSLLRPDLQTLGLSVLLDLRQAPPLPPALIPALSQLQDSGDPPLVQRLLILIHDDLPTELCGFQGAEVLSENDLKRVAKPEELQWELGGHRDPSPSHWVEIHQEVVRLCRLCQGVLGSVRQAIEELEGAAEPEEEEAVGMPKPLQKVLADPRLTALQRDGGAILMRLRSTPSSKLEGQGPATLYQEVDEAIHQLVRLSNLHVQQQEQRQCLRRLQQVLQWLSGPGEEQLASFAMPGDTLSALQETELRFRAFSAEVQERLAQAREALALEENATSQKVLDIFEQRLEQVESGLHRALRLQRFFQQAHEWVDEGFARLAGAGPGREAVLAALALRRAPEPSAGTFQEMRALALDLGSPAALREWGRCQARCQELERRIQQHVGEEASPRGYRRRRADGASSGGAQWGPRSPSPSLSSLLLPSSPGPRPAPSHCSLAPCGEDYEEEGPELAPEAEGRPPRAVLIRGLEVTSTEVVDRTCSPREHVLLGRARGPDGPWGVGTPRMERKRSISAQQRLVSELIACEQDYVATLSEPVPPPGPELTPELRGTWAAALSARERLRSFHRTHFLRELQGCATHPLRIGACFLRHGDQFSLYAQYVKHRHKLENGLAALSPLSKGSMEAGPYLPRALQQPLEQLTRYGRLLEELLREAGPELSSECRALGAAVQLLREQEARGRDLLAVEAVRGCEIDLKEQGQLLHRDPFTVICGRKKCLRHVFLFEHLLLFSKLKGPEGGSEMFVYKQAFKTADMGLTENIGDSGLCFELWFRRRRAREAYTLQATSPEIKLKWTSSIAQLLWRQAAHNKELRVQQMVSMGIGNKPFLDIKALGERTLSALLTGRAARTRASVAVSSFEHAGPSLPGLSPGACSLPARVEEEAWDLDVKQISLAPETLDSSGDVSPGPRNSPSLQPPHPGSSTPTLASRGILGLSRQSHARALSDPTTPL
UniProt Q15052: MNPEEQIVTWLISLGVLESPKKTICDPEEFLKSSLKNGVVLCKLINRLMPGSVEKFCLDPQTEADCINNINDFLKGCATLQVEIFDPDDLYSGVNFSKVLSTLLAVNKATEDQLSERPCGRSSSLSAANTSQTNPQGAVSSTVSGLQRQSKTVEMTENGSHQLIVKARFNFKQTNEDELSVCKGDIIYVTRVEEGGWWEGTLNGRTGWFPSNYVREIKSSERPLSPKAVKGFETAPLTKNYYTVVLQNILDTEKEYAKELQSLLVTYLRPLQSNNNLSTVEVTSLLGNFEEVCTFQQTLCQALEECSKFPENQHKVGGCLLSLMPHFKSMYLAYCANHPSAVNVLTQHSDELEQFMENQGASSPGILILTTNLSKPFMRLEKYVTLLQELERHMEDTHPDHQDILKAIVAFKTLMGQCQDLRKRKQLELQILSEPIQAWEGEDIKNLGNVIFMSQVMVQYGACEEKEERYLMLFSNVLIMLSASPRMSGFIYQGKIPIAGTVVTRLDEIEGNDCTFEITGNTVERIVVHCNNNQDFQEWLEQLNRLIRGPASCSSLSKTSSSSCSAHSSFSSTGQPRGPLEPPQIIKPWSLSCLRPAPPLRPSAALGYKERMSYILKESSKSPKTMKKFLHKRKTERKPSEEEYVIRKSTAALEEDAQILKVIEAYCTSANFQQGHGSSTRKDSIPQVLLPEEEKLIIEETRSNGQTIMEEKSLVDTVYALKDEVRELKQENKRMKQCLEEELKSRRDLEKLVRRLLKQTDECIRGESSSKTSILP

Compound: Cc1cc(ccc1-c1ccccc1)C(=O)N1CCCN(CC1)C(=O)CCl [compound 10]
Experiment: probe-labelled cysteine peptide fold change vs DMSO (competition) (log2 fold change); higher = less target engagement (more negative = stronger competition)
Settings: THP-1, incubation time: 4 h
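Note: competitive profiling in live THP-1 cells: cysteine peptides tagged with an iodoacetamide desthiobiotin (IA-DTB) probe, intensity after compound treatment relative to DMSO-treated cells.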

Target	probe-labelled cysteine peptide fold change (10 µM)	probe-labelled cysteine peptide fold change (50 µM)
ARCN1_P48444_441_NTLEWCLPVIDAK (UniProt P48444)	0.0518	0.0976
ARIH1_Q9Y4X5_327_KCDDDSETSNWIAANTK (UniProt Q9Y4X5)	-0.0676	-0.448
APP_P05067_117_CLVGEFVSDALLVPDK (UniProt P05067)	-0.46	-0.535
ARIH2_O95376_188_DGVGVGVSCMAQDCPLR (UniProt O95376)	0.00474	-0.112
ARL6IP1_Q15041_109_FHEICSNLVK (UniProt Q15041)	0.0846	0.185
ARHGAP44_Q17R89_193_ADALREEMEEAANRVEICR (UniProt Q17R89)	-0.0472	-0.212
ARHGEF1_Q92888_595_EKVELAAECCR (UniProt Q92888)	0.135	-0.557
ARHGEF1_Q92888_752_KNWCALITETAGSLK (UniProt Q92888)	-0.22	-0.795
ARL1_P40616_80+95_CYYSNTDAVIYVVDSCDRDR (UniProt P40616)	-0.17	-0.252
ARHGAP25_P42331_89_AQQLYYYKDEEDTKPQGCMYLPGCTIK (UniProt P42331)	0.0868	-0.124
ARHGEF40_Q8TER5_636_LLILIHDDLPTELCGFQGAEVLSENDLKR (UniProt Q8TER5)	-0.15	-0.378
ARPC3_O15145_162_WWTCFVK (UniProt O15145)	-0.0423	0.139
ARHGEF6_Q15052_25_TICDPEEFLK (UniProt Q15052)	-0.182	-0.254
ARPC1B_O15143_26_DRTQIAICPNNHEVHIYEK (UniProt O15143)	0.0263	-0.124

Another view of part of the listing above:

| Target | probe-labelled cysteine peptide fold change (10 µM) | probe-labelled cysteine peptide fold change (50 µM) |
| --- | --- | --- |
| ARHGEF1_Q92888_595_EKVELAAECCR (UniProt Q92888) | 0.135 | -0.557 |
| ARHGEF1_Q92888_752_KNWCALITETAGSLK (UniProt Q92888) | -0.22 | -0.795 |
